Reference: paper doi:10.1101/830802
No constants are given. Whether binding was seen depends on the method and setting. Binding seen in cells or lysates may run through a third protein. Some entries that bind do so weakly or less than the wild type. Sequences can lack the tags named with a protein.

How the values were obtained:
Assay in all cases: co-IP
[1] = molecular target: T1, GFP-Auxilin (wild type, human) (human) (UniProt O75061)
T1 sequence: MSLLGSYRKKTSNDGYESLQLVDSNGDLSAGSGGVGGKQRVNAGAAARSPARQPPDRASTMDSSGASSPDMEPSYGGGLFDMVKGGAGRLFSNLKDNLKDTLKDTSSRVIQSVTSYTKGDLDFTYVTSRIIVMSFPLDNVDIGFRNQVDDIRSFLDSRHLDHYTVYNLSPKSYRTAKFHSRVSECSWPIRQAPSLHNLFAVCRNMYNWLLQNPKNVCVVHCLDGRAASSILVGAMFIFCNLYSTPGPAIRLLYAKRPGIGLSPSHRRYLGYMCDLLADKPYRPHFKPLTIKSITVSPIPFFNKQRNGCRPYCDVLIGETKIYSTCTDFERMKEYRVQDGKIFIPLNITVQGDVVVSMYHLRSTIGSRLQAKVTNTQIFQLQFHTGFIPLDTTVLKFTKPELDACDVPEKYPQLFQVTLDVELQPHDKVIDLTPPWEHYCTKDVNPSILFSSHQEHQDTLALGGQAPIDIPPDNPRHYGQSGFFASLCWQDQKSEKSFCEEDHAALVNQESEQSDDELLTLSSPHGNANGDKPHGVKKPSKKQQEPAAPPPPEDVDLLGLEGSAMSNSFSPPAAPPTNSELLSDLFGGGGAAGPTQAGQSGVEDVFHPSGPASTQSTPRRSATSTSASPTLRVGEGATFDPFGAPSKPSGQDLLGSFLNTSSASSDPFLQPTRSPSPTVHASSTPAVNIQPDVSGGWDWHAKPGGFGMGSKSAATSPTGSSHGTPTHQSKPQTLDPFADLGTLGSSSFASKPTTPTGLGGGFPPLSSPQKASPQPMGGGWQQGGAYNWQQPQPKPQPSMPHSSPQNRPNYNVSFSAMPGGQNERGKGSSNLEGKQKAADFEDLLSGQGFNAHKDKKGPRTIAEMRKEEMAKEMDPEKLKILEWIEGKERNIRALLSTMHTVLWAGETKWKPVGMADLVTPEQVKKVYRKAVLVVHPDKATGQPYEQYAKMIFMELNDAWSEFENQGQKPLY

[2] = molecular target: T2, GFP-Auxilin Q791X (human) (UniProt O75061)
T2 sequence: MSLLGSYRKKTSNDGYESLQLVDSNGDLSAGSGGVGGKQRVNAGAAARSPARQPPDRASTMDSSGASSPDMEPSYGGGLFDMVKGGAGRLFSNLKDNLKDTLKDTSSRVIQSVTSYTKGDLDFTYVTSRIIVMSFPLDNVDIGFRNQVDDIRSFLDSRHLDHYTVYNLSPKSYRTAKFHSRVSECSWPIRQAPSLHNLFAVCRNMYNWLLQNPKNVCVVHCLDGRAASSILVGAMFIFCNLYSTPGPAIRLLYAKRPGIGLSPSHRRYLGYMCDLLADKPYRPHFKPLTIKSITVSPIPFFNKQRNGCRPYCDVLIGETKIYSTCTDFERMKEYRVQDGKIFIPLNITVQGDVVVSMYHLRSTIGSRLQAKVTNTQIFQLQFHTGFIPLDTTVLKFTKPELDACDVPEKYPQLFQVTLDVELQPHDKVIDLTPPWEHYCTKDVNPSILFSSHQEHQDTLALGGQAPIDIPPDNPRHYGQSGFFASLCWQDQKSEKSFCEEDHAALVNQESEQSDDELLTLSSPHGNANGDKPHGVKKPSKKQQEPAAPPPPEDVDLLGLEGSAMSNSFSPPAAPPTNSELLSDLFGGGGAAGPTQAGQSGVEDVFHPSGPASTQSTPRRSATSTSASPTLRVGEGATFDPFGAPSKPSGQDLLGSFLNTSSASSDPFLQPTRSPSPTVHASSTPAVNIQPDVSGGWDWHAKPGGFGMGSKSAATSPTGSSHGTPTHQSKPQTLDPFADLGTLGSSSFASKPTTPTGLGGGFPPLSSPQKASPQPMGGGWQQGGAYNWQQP

[3] = molecular target: T3, GFP-Auxilin Q846X (human) (UniProt O75061)
T3 sequence: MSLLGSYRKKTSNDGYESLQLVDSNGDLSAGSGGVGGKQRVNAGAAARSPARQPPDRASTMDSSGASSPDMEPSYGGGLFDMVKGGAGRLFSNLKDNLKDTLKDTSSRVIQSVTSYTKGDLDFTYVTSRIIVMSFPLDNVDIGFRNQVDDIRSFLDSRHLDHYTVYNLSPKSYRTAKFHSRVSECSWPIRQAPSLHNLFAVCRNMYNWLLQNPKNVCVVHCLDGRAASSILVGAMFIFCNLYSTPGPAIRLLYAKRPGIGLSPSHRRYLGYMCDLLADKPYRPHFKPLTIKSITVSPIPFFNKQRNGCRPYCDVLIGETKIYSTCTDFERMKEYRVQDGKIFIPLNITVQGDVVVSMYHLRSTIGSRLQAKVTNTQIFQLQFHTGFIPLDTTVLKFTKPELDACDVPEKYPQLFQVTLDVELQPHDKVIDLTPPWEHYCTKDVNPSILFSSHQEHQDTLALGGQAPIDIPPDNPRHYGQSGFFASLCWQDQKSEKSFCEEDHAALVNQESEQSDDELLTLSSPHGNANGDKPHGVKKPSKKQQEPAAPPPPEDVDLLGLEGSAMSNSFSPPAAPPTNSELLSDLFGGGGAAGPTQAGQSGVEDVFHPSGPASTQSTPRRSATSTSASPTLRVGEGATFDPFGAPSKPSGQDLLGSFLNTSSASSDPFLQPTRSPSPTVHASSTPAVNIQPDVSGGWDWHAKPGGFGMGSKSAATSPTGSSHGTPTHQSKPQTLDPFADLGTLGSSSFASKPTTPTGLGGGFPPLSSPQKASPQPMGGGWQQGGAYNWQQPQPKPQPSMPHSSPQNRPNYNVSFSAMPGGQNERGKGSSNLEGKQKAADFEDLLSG

binding [1]: binds weakly | binding [2]: binds weakly | binding [3]: binds weakly
B1: GGA3, endogenous in HEK293FT (protein, UniProt Q9NZ52 1-723)
chain: MAEAEGESLESWLNKATNPSNRQEDWEYIIGFCDQINKELEGPQIAVRLLAHKIQSPQEWEALQALTVLEACMKNCGRRFHNEVGKFRFLNELIKVVSPKYLGDRVSEKVKTKVIELLYSWTMALPEEAKIKDAYHMLKRQGIVQSDPPIPVDRTLIPSPPPRPKNPVFDDEEKSKLLAKLLKSKNPDDLQEANKLIKSMVKEDEARIQKVTKRLHTLEEVNNNVRLLSEMLLHYSQEDSSDGDRELMKELFDQCENKRRTLFKLASETEDNDNSLGDILQASDNLSRVINSYKTIIEGQVINGEVATLTLPDSEGNSQCSNQGTLIDLAELDTTNSLSSVLAPAPTPPSSGIPILPPPPQASGPPRSRSSSQAEATLGPSSTSNALSWLDEELLCLGLADPAPNVPPKESAGNSQWHLLQREQSDLDFFSPRPGTAACGASDAPLLQPSAPSSSSSQAPLPPPFPAPVVPASVPAPSAGSSLFSTGVAPALAPKVEPAVPGHHGLALGNSALHHLDALDQLLEEAKVTSGLVKPTTSPLIPTTTPARPLLPFSTGPGSPLFQPLSFQSQGSPPKGPELSLASIHVPLESIKPSSALPVTAYDKNGFRILFHFAKECPPGRPDVLVVVVSMLNTAPLPVKSIVLQAAVPKSMKVKLQPPSGTELSPFSPIQPPAAITQVMLLANPLKEKVRLRYKLTFALGEQLSTEVGEVDQFPPVEQWGNL
